According to patent publication US20230220073A1:
These are yes or no findings as the source states them, for the method shown. Some results given as binding are weak or reduced against the parent protein; the word gives no strength. Each block holds one binder with its values, some of them ahead of it.

Chains of the proteins cited; added tags and fusions are not shown. Lines headed by an entry give the natural chain unless they say otherwise; changes in a name come on top. A line that says so, or that is headed by a name, gives the form on record, which may keep a tag or linker. Residues count along the entry.
UniProt Q01973: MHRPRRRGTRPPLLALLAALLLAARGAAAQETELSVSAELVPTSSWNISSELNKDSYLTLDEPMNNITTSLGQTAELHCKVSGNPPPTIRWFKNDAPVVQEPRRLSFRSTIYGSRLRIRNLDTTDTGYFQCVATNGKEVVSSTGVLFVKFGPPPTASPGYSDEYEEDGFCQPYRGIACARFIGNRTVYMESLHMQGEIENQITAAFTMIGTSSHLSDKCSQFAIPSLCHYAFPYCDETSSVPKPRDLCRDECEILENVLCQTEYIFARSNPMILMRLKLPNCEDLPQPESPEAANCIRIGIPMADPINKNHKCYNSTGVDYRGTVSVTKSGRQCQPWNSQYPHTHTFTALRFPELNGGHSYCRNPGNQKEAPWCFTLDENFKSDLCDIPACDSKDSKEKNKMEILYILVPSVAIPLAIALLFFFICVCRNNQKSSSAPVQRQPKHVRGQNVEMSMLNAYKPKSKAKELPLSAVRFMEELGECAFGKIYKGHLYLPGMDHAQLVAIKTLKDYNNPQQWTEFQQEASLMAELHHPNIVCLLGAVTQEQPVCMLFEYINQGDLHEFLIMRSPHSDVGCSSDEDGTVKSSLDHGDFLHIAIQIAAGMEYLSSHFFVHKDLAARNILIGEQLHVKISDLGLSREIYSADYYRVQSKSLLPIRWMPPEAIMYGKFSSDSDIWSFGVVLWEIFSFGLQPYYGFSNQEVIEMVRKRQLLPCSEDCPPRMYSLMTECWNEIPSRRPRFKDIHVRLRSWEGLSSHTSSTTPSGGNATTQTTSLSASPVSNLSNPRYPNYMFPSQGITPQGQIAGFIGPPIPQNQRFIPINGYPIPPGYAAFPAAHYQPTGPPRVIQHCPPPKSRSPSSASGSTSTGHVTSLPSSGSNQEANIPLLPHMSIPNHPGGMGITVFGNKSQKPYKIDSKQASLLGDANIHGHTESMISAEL
SKW 6.4 GFP: residues 30-937 of Q01973
ROR1, full extracellular region, on transduced SUP-T1 cells: residues 30-406 of Q01973
ROR1 Ig-like+Frizzled (Fz) domains, on transduced SUP-T1 cells: residues 30-299 of Q01973
ROR1 Ig-like domain alone, on transduced SUP-T1 cells: residues 30-147 of Q01973
ROR1 Ig-like domain with S(50)D, on transduced SUP-T1 cells (Q01973, form named): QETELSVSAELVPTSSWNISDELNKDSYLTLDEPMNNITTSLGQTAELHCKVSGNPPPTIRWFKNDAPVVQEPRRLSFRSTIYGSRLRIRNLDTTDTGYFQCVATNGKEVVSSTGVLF

Key:
[1] = biological target: ROR1 Ig-like domain alone, on transduced SUP-T1 cells (human) (UniProt Q01973); assay: flow cytometry, transduced SUP-T1 cells, anti-human Fc-Dylight647
[2] = biological target: ROR1, full extracellular region, on transduced SUP-T1 cells (UniProt Q01973); assay: as above
[3] = biological target: ROR1 Ig-like+Frizzled (Fz) domains, on transduced SUP-T1 cells (UniProt Q01973); assay: as above
[4] = biological target: ROR1, full extracellular region, on transduced SUP-T1 cells (UniProt Q01973); assay: flow cytometry on ROR1-expressing cells; whole immunoglobulin
[5] = biological target: SKW 6.4 GFP (human) (UniProt Q01973); assay: flow cytometry, SKW 6.4 GFP cells stained at 4 C, anti-human Fc-Dylight 647
[6] = biological target: ROR1 Ig-like domain with S(50)D, on transduced SUP-T1 cells (human) (UniProt Q01973); assay: flow cytometry on SUP-T1 cells transduced with mutated ROR1 Ig-like domain

binding [1]: binds
binding [2]: binds
binding [3]: binds
binding [4]: binds
binding [5]: binds
B1: Clone J chimeric ROR1 antibody (antibody, V domains shown)
VH: DVKLVESGGGLLKPGGSLKLSCVASGFSFSKYWMHWVRQAPGQGLEWIAEIEYDGTETNYAPSIKDRFTISRDNAKNTLYLQMSNVRFEDAATYFCTTEEMHTTDYYYGFAYWGQGTLVTVSS
VL: DIVLTQSPALAVSVGQRATISCRASQSVSISRYDFMHWYQQKPGQQPKLLIYRASNLASGIPARFSGSGSGTDFTLTINPVQADDIATYYCQQNRESPRTFGGGTKLELK

binding [1]: binds
binding [2]: binds
binding [3]: binds
binding [4]: binds
binding [5]: binds
B2: Clone B chimeric ROR1 antibody (antibody, V domains shown)
VH: DVQLEESGGGLVRPGRSLKLSCADSGVNFSNRGMAWVRQAPTKGLEWVATISYDGRIIYYRDSVKGRFSISRENAKSTLYLQMDSLRSEDTATYYCARHPIAADWYFDFWGPGTMVTVSS
VL: DIRMTQSPASLSASLGETVTIECLTSEDIYSDLAWFQQKPGKSPQLLIYDANSLQNGVPSRFGGCGSGTQYSLQISSLQSEDVATYFCQQYKNYPPTFGGGTKLVLK

binding [6]: binds
B3: Clone A chimeric ROR1 antibody (antibody, V domains shown)
VH: QVQLQQSGTELVKPASSVRISCKASGYTLTTNYMHWIRQQPGNGLEWIGWIYPGNGNTKFNHKFDGRTTLTADKSSSIVYMQLSSLTSEDSAVYFCARSDFDYWGQGVMVTVSS
VL: DIQMTQSPSSMSASLGDRVTFTCQASQDIGNNLIWFQQKPGKSPRPLMYFATSLANGVPSRFSGSRSGSDYSLTISSLESEDLADYHCLQYREYPLTFGSGTKLDLK
